Source: patent US20210024498A1, “TETRAHYDROPYRROLE COMPOUND, PREPARATION METHOD THEREFOR, PHARMACEUTICAL COMPOSITION CONTAINING SAME, AND USE THEREOF” (MEDICONNS (SHANGHAI) BIOPHARMACEUTICAL CO., LTD, priority 2017, published 2021)

Protein sequences, listed by entry. Tags and fused reporters are not part of them.
UniProt Q01959, whole entry, species assumed: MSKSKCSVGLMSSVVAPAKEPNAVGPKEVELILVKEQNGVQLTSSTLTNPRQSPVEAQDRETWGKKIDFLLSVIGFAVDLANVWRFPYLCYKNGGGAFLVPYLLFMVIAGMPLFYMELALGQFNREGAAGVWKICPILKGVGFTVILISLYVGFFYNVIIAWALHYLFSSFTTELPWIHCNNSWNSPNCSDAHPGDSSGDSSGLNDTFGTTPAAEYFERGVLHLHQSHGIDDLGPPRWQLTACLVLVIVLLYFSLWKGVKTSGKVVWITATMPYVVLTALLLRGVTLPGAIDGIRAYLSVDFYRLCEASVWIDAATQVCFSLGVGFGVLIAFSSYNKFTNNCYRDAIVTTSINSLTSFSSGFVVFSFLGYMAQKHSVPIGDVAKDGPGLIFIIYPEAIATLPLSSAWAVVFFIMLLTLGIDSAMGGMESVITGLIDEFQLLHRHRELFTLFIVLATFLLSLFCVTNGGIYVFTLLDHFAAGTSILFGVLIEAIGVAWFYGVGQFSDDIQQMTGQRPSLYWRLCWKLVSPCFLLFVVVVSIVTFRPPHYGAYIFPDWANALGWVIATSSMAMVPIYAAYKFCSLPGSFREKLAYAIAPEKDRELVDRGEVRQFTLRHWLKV

Target: DAT (Homo sapiens, UniProt Q01959)
Assay: DAT transporter assay (neurotransmitter transporter absorption assay)
Type: cell-based
Procedure: Bioactivity Test • I. D2 receptor affinity assay: The affinity of the compound to D2 receptor was determined by radioligand competition assay, and the cloned D2 receptor was expressed in HEK293 cell line. • II. D2 receptor function assay: The ability of the compound to antagonize the D2 receptor was determined using a calcium mobilization assay (FLIPR). • III. DAT receptor function assay: The ability of the compound to inhibit DAT was determined by neurotransmitter transporter absorption assay.
• HBSS1×, REPES 20 mM, BSA 0.1%.
• Lyophilized fluorescent dye 1 vial, Assay buffer 10 mL.
• BTCP—hydrochloride (Sigma)
• i) The medium was preheated in 37° C. water bath in advance for more than 30 minutes for later use. • j) The preheated medium was taken out, disinfected with 75% alcohol, and put into a biosafety cabinet. • k) The cultured cells were taken out from the […], and the medium was removed by a vacuum pump. 1× DPBS was added, incubated for a moment, and then removed by a vacuum pump. Appropriate amount of 0.05% trypsin-EDTA was added for cell digestion. The digestion was terminated by 10% FBS medium, and the cells were pipetted and dispersed. • l) The dispersed cells were transferred into a 50 mL centrifuge tube with a pipette. […]

- IC50: > 10 µM
Compound: O=C1CCc2ccc(OCCCCN3CCN(c4cccc(Cl)c4Cl)CC3)cc2N1 [Aripiprazole, reference compound]
